This experiment concerns the target FLAG-UFL1 (UFM1-specific ligase 1), expressed in HEK293T cells (UniProt O94874). As to the kind of experiment: affinity purification with mass spectrometry; HEK293T cells expressing FLAG-UFL1 (or vector) lysed under non-denaturing conditions, IP with anti-FLAG M2 beads, SDS-PAGE, mass spectrometry.

By UniProt entry, the sequences of proteins in these tests, tags left out.
UniProt O94874: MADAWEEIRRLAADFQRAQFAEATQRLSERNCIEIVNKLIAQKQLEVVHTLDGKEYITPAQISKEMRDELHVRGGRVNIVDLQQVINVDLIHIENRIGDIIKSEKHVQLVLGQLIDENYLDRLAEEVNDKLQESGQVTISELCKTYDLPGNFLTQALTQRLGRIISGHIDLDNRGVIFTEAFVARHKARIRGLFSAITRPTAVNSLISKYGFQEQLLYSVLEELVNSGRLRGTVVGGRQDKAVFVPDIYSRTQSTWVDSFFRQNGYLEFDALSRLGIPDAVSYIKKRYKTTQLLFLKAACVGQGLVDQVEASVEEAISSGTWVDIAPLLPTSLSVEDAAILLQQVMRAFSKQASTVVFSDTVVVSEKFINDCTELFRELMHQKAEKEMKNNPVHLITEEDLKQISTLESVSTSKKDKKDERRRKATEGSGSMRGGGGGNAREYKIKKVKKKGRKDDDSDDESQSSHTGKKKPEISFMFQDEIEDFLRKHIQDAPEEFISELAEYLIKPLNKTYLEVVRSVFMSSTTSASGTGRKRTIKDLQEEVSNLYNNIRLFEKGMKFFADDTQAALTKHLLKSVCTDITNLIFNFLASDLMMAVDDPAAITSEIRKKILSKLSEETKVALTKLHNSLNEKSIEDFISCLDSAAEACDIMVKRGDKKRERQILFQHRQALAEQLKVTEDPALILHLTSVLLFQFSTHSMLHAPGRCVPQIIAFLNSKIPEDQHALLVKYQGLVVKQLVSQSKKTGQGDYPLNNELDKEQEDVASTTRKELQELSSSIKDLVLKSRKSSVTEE

Results are given in words; binding and its absence hold for the method and conditions named. Binding seen in cells or lysates may run through a third protein. A yes stands for co-enrichment or nearness to the bait. Other partners may have been found.

B1: MCM3 (endogenous, HEK293T) (protein, UniProt P25205 1-808)
chain: MAGTVVLDDVELREAQRDYLDFLDDEEDQGIYQSKVRELISDNQYRLIVNVNDLRRKNEKRANRLLNNAFEELVAFQRALKDFVASIDATYAKQYEEFYVGLEGSFGSKHVSPRTLTSCFLSCVVCVEGIVTKCSLVRPKVVRSVHYCPATKKTIERRYSDLTTLVAFPSSSVYPTKDEENNPLETEYGLSVYKDHQTITIQEMPEKAPAGQLPRSVDVILDDDLVDKAKPGDRVQVVGTYRCLPGKKGGYTSGTFRTVLIACNVKQMSKDAQPSFSAEDIAKIKKFSKTRSKDIFDQLAKSLAPSIHGHDYVKKAILCLLLGGVERDLENGSHIRGDINILLIGDPSVAKSQLLRYVLCTAPRAIPTTGRGSSGVGLTAAVTTDQETGERRLEAGAMVLADRGVVCIDEFDKMSDMDRTAIHEVMEQGRVTIAKAGIHARLNARCSVLAAANPVYGRYDQYKTPMENIGLQDSLLSRFDLLFIMLDQMDPEQDREISDHVLRMHRYRAPGEQDGDAMPLGSAVDILATDDPNFSQEDQQDTQIYEKHDNLLHGTKKKKEKMVSAAFMKKYIHVAKIIKPVLTQESATYIAEEYSRLRSQDSMSSDTARTSPVTARTLETLIRLATAHAKARMSKTVDLQDAEEAVELVQYAYFKKVLEKEKKRKKRSEDESETEDEEEKSQEDQEQKRKRRKTRQPDAKDGDSYDPYDFSDTEEEMPQVHTPKTADSQETKESQKVELSESRLKAFKVALLDVFREAHAQSIGMNRLTESINRDSEEPFSSVEIQAALSKMQDDNQVMVSEGIIFLI
As to B1, the binding entry is on record as “binds”.

B2: MCM5 (endogenous, HEK293T) (protein, UniProt P33992 1-734)
chain: MSGFDDPGIFYSDSFGGDAQADEGQARKSQLQRRFKEFLRQYRVGTDRTGFTFKYRDELKRHYNLGEYWIEVEMEDLASFDEDLADYLYKQPAEHLQLLEEAAKEVADEVTRPRPSGEEVLQDIQVMLKSDASPSSIRSLKSDMMSHLVKIPGIIIAASAVRAKATRISIQCRSCRNTLTNIAMRPGLEGYALPRKCNTDQAGRPKCPLDPYFIMPDKCKCVDFQTLKLQELPDAVPHGEMPRHMQLYCDRYLCDKVVPGNRVTIMGIYSIKKFGLTTSRGRDRVGVGIRSSYIRVLGIQVDTDGSGRSFAGAVSPQEEEEFRRLAALPNVYEVISKSIAPSIFGGTDMKKAIACLLFGGSRKRLPDGLTRRGDINLLMLGDPGTAKSQLLKFVEKCSPIGVYTSGKGSSAAGLTASVMRDPSSRNFIMEGGAMVLADGGVVCIDEFDKMREDDRVAIHEAMEQQTISIAKAGITTTLNSRCSVLAAANSVFGRWDETKGEDNIDFMPTILSRFDMIFIVKDEHNEERDVMLAKHVITLHVSALTQTQAVEGEIDLAKLKKFIAYCRVKCGPRLSAEAAEKLKNRYIIMRSGARQHERDSDRRSSIPITVRQLEAIVRIAEALSKMKLQPFATEADVEEALRLFQVSTLDAALSGTLSGVEGFTSQEDQEMLSRIEKQLKRRFAIGSQVSEHSIIKDFTKQKYPEHAIHKVLQLMLRRGEIQHRMQRKVLYRLK
As for B2, the binding entry is given as “binds”.

The values above are taken from PMC12583452.
